At least one compound was matched to its structure with a doubt left.
What was measured:
[1] = test system: actively sensitized Brown Norway rats; assay: Allergen-induced pulmonary leukocyte accumulation, combination of 3b and budesonide; type: in vivo
[2] = test system: actively sensitized Brown Norway rats; assay: Allergen-induced pulmonary leukocyte accumulation in actively sensitized Brown Norway rats (3b alone); type: in vivo; settings: 0.1 mg/kg i.t.
Protocol: Rats. Male Brown Norway rats were supplied by Harlan Olac Limited (Bicester, Oxon, UK) and delivered within the weight range of 180-200 g. Following acclimatization for at least five days, animals were actively sensitized over a 3-week period and were within the weight range 250-300 g at the time of allergen exposure. Food and water were provided ad libitum.
Sensitization. Ovalbumin (OA; 10 μg) mixed with aluminum hydroxide gel (10 mg) will be injected (0.5 mL, i.p.) into Brown Norway rats and repeated 7 and 14 days later.
Drug Treatment. On day 21, sensitized rats were anaesthetized (halothane 5% in O2) and 3b, dexamethasone, or vehicle (lactose) was instilled via a cannula placed directly into the trachea at 1 hour prior to OA exposure. This procedure was repeated at 24 hours and 48 hours after OA exposure.
Challenge. Following recovery, sensitized animals were restrained in plastic tubes and exposed (60 min) to an aerosol of OA (10 mg/mL) using a nose-only exposure system. Animals were sacrificed 72 hours later with pentobarbital (250 mg/kg i.p.).
Analysis. […] Total cells were counted (Sysmex Microcell Counter F-500, TOPA Medical Electronics Ltd., Japan). […] A total of 500 cells per smear were counted by light microscopy under oil immersion (x 1000).

Structure (SMILES)	increase in eosinophils, neutrophils, and total leukocytes after ovalbumin challenge ([1]; budesonide alone 0.1 mg/kg (C) i.t.)	increase in eosinophils, neutrophils, and total leukocytes after ovalbumin challenge ([1]; budesonide alone 0.5 mg/kg (F) i.t.)	increase in eosinophils, neutrophils, and total leukocytes after ovalbumin challenge [2]
CCCC1O[C@@H]2C[C@H]3[C@@H]4CCC5=CC(=O)C=C[C@]5(C)[C@H]4[C@@H](O)C[C@]3(C)[C@]2(C(=O)CO)O1 (stereo partly drawn) [budesonide]	had not effect	effective	
C[C@@H]1C[C@H]2[C@@H]3CCC4=CC(=O)C=C[C@]4(C)[C@@]3(F)[C@@H](O)C[C@]2(C)[C@@]1(O)C(=O)CO [dexamethasone, reference compound]			prevented this increase

Source: US20010051654A1, “Treatment of inflammatory and autoimmune diseases” (priority 1997, published 2001)
